## Library screening results

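Viability assay of Plasmodium falciparum sporozoites; the read-out is not stated. The concentration is filed as 10 mM, unlikely as a test dose, so the dose is not known. Direction is inferred from retests: higher values go with lower viability. Strong results were mostly tested again. Size under these conditions: about 34,000 compounds, about 280 of them at 50% or above in at least one test.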

Results are given as percent effect.
The controls that fix the scale are not given in the record; negative values are as filed.
Compounds were drawn at random from those tested, without regard to their results.
Two or more numbers in one place are separate tests of the same structure; such repeats can differ widely.

Compound: CCSCc1nc(O)c2nnn(C3CCN(Cc4ccco4)CC3)c2n1
percent effect: 1.748%

Compound: O=C(Cn1cc(Cl)cn1)Nc1ccc2c(c1)OCO2
percent effect: -26.57% & -36.31%

Compound: Cn1ccnc1CN1CCOC(Cc2ccccc2)C1 (centres undefined)
percent effect: 5.747%

Compound: CC(C)(C)C(=O)N1CCC(n2nc(-c3ccco3)ccc2=O)CC1
percent effect: 24.34%

Compound: CSc1c[nH]nc1NS(=O)(=O)c1cc(F)ccc1C
percent effect: -0.1095%

Compound: CC(C)C1SCC(=O)Nc2c1cnn2-c1ccc(Cl)cc1 (centres undefined)
percent effect: -13.46%

Compound: O=C(O)C(F)(F)F.O=C(O)C(F)(F)F.c1ccc(OCc2nnc3n2CCN(CC2CCOCC2)C3)nc1
percent effect: -2.125%

Compound: COCCN1CCc2cc(C(=O)O)c(-c3ccoc3)nc2CC1.O=C(O)C(F)(F)F.O=C(O)C(F)(F)F
percent effect: 12.63%

Compound: CN(c1cccc2ccccc12)S(=O)(=O)c1cc(C(=O)O)cs1
percent effect: 2.081%

Compound: Cc1nccn1CCN(C)C(=O)C1CCN(C(=O)C2CCC2)CC1
percent effect: -8.462%

Compound: Cc1ccc([C@@H]2CN(C(=O)c3ccon3)C[C@H]2NC(=O)C2CC2)cc1
percent effect: -11.14%

Compound: Cc1cc(CNC(=O)NC(C)c2ccc(N3CCOCC3)cc2)no1 (centres undefined)
percent effect: -12.65%

Compound: COc1ccc(-c2nc(CN3CCc4c(ncn4C)C3)cs2)cc1
percent effect: -35.44% & 2.093% & -39.59%

Compound: CN1CCN(CC2CC2)C(=O)c2cnc(N3CCC(CO)CC3)nc21
percent effect: -1.778%

Compound: O=C(O)C(F)(F)F.O=C(c1ccccn1)N1CCC2(CC1)COC(COCC1CCCC1)C2 (centres undefined)
percent effect: -24.09%

Compound: Cc1cc(C(=O)NCC2COCc3c(C)nnn3C2)no1 (centres undefined)
percent effect: 4.362%

Compound: CN(CC1CCCC1)C(=O)c1cn(C)nc1-c1cccnc1
percent effect: -5.006%

Compound: Cl.c1cnc2c(c1)cc([C@H]1CCCO1)n2CCN1CCCC1
percent effect: 10.27%

Compound: CC(=O)N(Cc1ncc(C(C)C)o1)C1CCN(Cc2cc(C)no2)C1 (centres undefined)
percent effect: 9.205%

Compound: Cc1nc(C2CCCN(C(=O)c3cc(Cl)c4c(c3)OCO4)C2)no1 (centres undefined)
percent effect: 4.374%

Compound: CC(=O)N1CCCC1c1nc(N(C)C)ncc1-c1ccccc1 (centres undefined)
percent effect: 3.645%

Compound: Clc1cc(NCc2nccs2)nc2[nH]ccc12
percent effect: -10.21%

Compound: O=c1[nH]c2ccccc2cc1CNCCCN1CCOCC1
percent effect: 15.96%

Compound: COc1ccc(N2CCN(CC(O)c3ccc(C)cc3C)CC2)cc1 (centres undefined)
percent effect: -3.724%

Compound: Cc1nc(C)n(CC2CCCCN2Cc2nc(-c3ccco3)no2)n1 (centres undefined)
percent effect: -0.6289%

Compound: COC(=O)c1cc(C(=O)N2CCCC(C)C2)n(-c2ccccc2)n1 (centres undefined)
percent effect: 5.793%

Compound: Cc1cc2n(n1)CC(CNCc1ccc(-n3ccnc3C)nc1)CN2 (centres undefined)
percent effect: -1.622%

Compound: COc1ccc2c(c1)OCC(CNC(=O)c1ccc(=O)n(C)c1)C2 (centres undefined)
percent effect: 5.509%

Compound: CS(=O)(=O)NCC1CCCN(C(=O)COc2ccc(F)cc2)C1 (centres undefined)
percent effect: 14.33%

Compound: Cc1cnn(C2CCCN(C(=O)Cc3c(C)nn(C)c3C)C2)c1 (centres undefined)
percent effect: -10.88%

The last 3 entries again:

COc1ccc2c(c1)OCC(CNC(=O)c1ccc(=O)n(C)c1)C2 (centres undefined) read 5.509%.
CS(=O)(=O)NCC1CCCN(C(=O)COc2ccc(F)cc2)C1 (centres undefined) read 14.33%.
Cc1cnn(C2CCCN(C(=O)Cc3c(C)nn(C)c3C)C2)c1 (centres undefined) read -10.88%.

The values are deposited in ChEMBL (CHEMBL3988442, “University of Dundee, Small-Polar-MMV Screening Library” (2021)).